Results: article PMC9465852, “Comparative analyses of vertebrate CPEB proteins define two subfamilies with coordinated yet distinct functions in post-transcriptional gene regulation”

Tests used:
[1] = target: CPEB1(6A)-BirA fusion (Xenopus laevis); experiment: proximity labelling; BioID with CPEB1(6A)-BirA in X. laevis oocytes, PI; for the preys that remained also after 10 uM progesterone (MII)
[2] = target: CPEB1(6A)-BirA fusion (Xenopus laevis); experiment: condition: only oocytes treated with 10 uM progesterone; proximity labelling; BioID with CPEB1(6A)-BirA in X. laevis oocytes stimulated with 10 uM progesterone (MII)

- binding [1]: binds
B1: Symplekin (SYMPK) (protein, UniProt Q7ZYV9 1-1202)
chain: MAVSMASQFFSQEEGTSEVVSTSERVVELLNMAALATNDTKITMLKQVQELIINKDPTLLDNFLDEIIAFQADKSVEVRKIVVNFIEEACKLDNELLIKLIANLHMLLKDENVNVVKKSILTMTQLYKVALQWVARSRPPSEQQESCWDLVTEMAADILLLLESDNDGMRTHAVKFVESLIVTLSPRTADSEVPKRQDGDISLEQIPPDHQFLKYNTLRDLGKQAVKELLKFMAHPAISSINLTAALGSLASIARQRPMFMAEVIQAYETLHANLPPTLAKSQVSSVRKNLKLQLLSVLRHPSSYEYQGPISTLLLDLGTSQGEITRHLPPPRDSNRKRAREDGEGGQKKSRTDIPLPDDDDDKDTMQLPTIPAPAPSTQSATDITADFVRPLLSPENVANLVLISMVYLPDSMPASFQSTYTPVESAGTDSQIRHLARLMATQMSAAGIGPGVEQSKDIPVDVVEEENIKPEGLVIKRRISALTKGQAISVLGCQSEKTKEEEEEEDDAPLAKKRPEPILPATQIRPSGVGGRKKVFRLKEVTEPLTDVQIKSLKLGAVRRILQAERSVGSSGASQMRVKVLARLVTQLDISVKAEVLSHFLNDPRMRLDLALAWLYQEYCEYQSGAGEEGYQECLIGILTGLQERPDQRDGVFTKVVLEAPLLTDSALDVLRKYCEDEGRSYLGMSTLRDLILTRPARQFQYLHLLLDLSSHEKDKIRQQSLHFIKRMYEKESLRPYIEKFALNYLQLLVHPNPPSVLFGADKDTEVAAPWTEDTVKQCLYLYLALLPQNHKLIHELASVYTEATADIKRTVLRVIETPIRGMGMNSPELLLLVENCPKGAETLVTRCLHILTDKVPPSPELVKRVRELYHKRLPDVRFLIPVLNGLDKKEVIQALPKLIKLNPIVVKEVFNRLLGTQHGEVSSSLSPLTPGDLLVALHNIDSSKCDMKSVIKATNLCFSARSVYTSEVLAVVLQQLMDTTPLPMLLMRTVIQALGMYPRLGGFIMNILTRLIYKQVWKYPKVWEGFIKCCQRTKPQSFSVLLQLPPPQLLSVLQTSPDLRDPLLAHVRAFTPHQLAHVPHSIMAILEAESRTDAGAEEAAQVEEEQETPAQDIIARRLAQEKSLKKQIEEQKGRNNQEMEEVAEVDPPAIFIAEEEEEESLKSQGKEEPQEDSSSNATTAEKSPVADEPMEEEPVEKKD

- binding [1]: binds
- binding [2]: no binding
B2: PATL2 (protein, UniProt Q4V7K4 1-733)
chain: MNLGSEQILPEDFYLAEEGALLEEMAEEDEEIDLYNEVTFGLDQESDEEPVKLEDDHTKPIQMPEAPKEEEPEALQPVKEAKGSEKAPLHEVKIVVEPHEDHVDLSIDSGGHTMNSTMDDSELGDPAVMKAFHGKPTLESLDSAVVDSGIGSTWSELDTDYDQSGMDSGLWEASPKVSTYATGQILEDKAILRIMERAPYLPPTNLEFLGSPLQRGFMPSQRLQGPEMGAMSPKPYRPRFMRQQSPLVPRSMRPSYPFTPPRRGPSVFAPNQSPGFVSQTPFRPMSPNVSTPTRPMTPKMVRMHFGPMSPSPSFSPFFSPMGNALQRFKVPGHVTQLHPQHRRILSQRQRPQSSSRRQWESRPDPYASLMSQKEKEWVIKLQMIQLQSENPHLDDYYYQAYYENLERKLSEEEFLGERKKREPTKLVTPYIQKAETYESVVHIEGSLGQVAVSTCYSPRRAIDAVSYAMPDEAIKALGYQRLRVLKHAEKVFLMFLEVEELARKMSHIPEEEHVHFQHKQNYKVQRIYDVLKIAPCHNEEESEFLQLLQVGKGKKLVARLLPFLRSEQAREILLLVVQHLTFLIKNDSAEESLSVLYGPLKTIINGLSFTELIGVTQELTRPLPESNDLPLTLAFQNQFGISLLYCLLSHGERLLSSDLPMEPCIGDFEKWTDTVFLVAKELSHVSKSSMVEPLFLPSNLLSLFCRYLDKQTIHKLEDKMECPVIPPYTAVPS

No constants are given. Whether binding was seen depends on the method and setting. Binding seen in cells or lysates may run through a third protein. Here binding means that the protein was enriched with, or labelled near, the bait; the list need not be complete. For part of these data: A no says only that the protein was not detected with the bait. Each block holds one binder with its values, some of them ahead of it.
